{"sequences": {"note": "Chains of the proteins cited; added tags and fusions are not shown. Residues count along the entry.", "UniProt Q99708, 791-897 R839A": "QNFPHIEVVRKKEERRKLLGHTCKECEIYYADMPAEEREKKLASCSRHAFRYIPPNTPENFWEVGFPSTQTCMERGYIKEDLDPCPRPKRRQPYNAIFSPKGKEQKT", "UniProt Q99708, 1-782, stated change not applied": "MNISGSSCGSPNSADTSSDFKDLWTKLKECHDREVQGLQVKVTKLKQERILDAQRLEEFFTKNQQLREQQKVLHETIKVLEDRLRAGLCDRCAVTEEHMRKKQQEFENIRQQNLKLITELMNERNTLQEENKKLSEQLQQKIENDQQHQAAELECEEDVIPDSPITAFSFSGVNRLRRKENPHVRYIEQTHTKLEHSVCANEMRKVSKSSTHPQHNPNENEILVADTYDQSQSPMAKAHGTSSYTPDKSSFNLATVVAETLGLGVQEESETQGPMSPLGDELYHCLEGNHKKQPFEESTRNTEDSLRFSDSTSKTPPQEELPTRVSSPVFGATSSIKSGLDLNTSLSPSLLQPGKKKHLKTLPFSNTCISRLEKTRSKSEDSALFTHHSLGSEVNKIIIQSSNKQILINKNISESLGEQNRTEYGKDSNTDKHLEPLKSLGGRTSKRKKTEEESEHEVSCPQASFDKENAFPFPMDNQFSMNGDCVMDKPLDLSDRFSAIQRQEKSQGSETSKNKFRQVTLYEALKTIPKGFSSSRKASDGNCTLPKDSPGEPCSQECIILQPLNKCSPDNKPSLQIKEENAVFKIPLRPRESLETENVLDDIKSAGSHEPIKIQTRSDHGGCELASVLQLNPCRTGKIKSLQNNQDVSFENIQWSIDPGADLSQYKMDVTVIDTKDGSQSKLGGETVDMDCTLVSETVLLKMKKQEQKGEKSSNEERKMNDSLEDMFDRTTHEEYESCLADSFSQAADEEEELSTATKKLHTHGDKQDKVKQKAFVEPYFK", "UniProt Q99708, 791-897, stated change not applied": "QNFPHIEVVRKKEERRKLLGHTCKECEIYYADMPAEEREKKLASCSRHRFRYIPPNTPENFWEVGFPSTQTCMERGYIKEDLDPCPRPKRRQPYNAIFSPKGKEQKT", "UniProt Q99708, 542-897, stated change not applied": "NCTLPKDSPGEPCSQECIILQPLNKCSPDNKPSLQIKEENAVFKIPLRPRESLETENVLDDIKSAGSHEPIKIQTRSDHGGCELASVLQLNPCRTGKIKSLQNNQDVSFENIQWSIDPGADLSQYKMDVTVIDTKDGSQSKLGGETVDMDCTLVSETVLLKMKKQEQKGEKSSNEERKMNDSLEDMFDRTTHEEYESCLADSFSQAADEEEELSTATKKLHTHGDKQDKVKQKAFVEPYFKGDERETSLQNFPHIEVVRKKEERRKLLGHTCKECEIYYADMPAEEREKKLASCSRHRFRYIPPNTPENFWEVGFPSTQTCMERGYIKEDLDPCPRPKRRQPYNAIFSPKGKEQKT", "UniProt Q99708, whole entry R100W": "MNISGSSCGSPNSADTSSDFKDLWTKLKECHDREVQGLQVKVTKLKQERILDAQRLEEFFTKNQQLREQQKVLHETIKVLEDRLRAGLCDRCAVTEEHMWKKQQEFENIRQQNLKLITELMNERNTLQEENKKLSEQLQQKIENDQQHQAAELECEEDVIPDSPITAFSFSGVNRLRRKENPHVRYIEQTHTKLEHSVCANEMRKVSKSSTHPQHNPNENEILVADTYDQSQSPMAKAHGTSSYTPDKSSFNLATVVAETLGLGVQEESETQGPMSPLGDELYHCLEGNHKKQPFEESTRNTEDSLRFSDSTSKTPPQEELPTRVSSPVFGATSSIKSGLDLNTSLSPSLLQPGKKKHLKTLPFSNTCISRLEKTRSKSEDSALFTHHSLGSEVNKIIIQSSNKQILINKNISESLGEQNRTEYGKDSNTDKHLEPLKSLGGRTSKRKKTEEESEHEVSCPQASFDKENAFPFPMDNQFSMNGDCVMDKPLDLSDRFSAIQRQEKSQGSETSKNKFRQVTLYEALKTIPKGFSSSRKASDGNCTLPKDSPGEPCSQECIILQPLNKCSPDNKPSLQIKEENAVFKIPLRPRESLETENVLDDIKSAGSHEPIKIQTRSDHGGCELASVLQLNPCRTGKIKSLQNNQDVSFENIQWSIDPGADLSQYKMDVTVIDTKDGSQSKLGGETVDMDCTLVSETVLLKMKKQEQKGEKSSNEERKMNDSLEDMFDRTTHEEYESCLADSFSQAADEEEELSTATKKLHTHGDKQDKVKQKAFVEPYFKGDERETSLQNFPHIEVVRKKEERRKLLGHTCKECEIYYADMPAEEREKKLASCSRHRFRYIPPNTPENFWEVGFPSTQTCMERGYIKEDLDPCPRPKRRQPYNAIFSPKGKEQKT"}, "source": "paper PMC11317151", "key": {"[1]": {"target": "CtIP ΔN790 R839A (human) (UniProt Q99708)", "assay": "fluorescence anisotropy", "conditions": "reduced vs ΔN790, label uncertain; Anisotropy: 20 mM Tris-Cl pH 8.0, 20 mM NaCl, 1 mM DTT, 5 nM HEX fork; recombinant protein; residues 791-897; protein details: StrepII; label: 5'-HEX on strand 1"}, "[2]": {"target": "CtIP ΔC782 (human) (UniProt Q99708)", "assay": "fluorescence anisotropy", "conditions": "partial binding at 400 nM, Kd not determined; Anisotropy: 20 mM Tris-Cl pH 8.0, 20 mM NaCl, 1 mM DTT, 5 nM HEX fork; recombinant protein; residues 1-782; protein details: StrepII; label: 5'-HEX on strand 1"}, "[3]": {"target": "CtIP ΔN790 (human) (UniProt Q99708)", "assay": "EMSA", "conditions": "shifted into wells; EMSA: 20 mM Tris-Cl pH 8.0, 100 mM NaCl, 1 mM DTT, 0.1 mg/ml BSA, 5% glycerol, 2.5 nM Cy5 fork, room temperature; recombinant protein; residues 791-897; protein details: StrepII; label: 5'-Cy5 on strand 1"}, "[4]": {"target": "CtIP ΔN790 R839A (human) (UniProt Q99708)", "assay": "EMSA", "conditions": "reduced vs ΔN790; EMSA: 20 mM Tris-Cl pH 8.0, 100 mM NaCl, 1 mM DTT, 0.1 mg/ml BSA, 5% glycerol, 2.5 nM Cy5 fork, room temperature; recombinant protein; residues 791-897; protein details: StrepII; label: 5'-Cy5 on strand 1"}, "[5]": {"target": "CtIP ΔN541b (human) (UniProt Q99708)", "assay": "EMSA", "conditions": "EMSA: 20 mM Tris-Cl pH 8.0, 100 mM NaCl, 1 mM DTT, 0.1 mg/ml BSA, 5% glycerol, 2.5 nM Cy5 fork, room temperature; recombinant protein; residues 542-897; protein details: StrepII; label: 5'-Cy5 on strand 1"}, "[6]": {"target": "CtIP ΔN541a (human) (UniProt Q99708)", "assay": "EMSA", "conditions": "tighter than ΔN541b; EMSA: 20 mM Tris-Cl pH 8.0, 100 mM NaCl, 1 mM DTT, 0.1 mg/ml BSA, 5% glycerol, 2.5 nM Cy5 fork, room temperature; recombinant protein; residues 542-897; protein details: StrepII; label: 5'-Cy5 on strand 1"}, "[7]": {"target": "CtIP ΔC782 (human) (UniProt Q99708)", "assay": "EMSA", "conditions": "detectable but severely impaired; EMSA: 20 mM Tris-Cl pH 8.0, 100 mM NaCl, 1 mM DTT, 0.1 mg/ml BSA, 5% glycerol, 2.5 nM Cy5 fork, room temperature; recombinant protein; residues 1-782; protein details: StrepII; label: 5'-Cy5 on strand 1"}, "[8]": {"target": "CtIP R100W (human) (UniProt Q99708)", "assay": "EMSA", "conditions": "slightly more protein needed; EMSA: 20 mM Tris-Cl pH 8.0, 100 mM NaCl, 1 mM DTT, 0.1 mg/ml BSA, 5% glycerol, 2.5 nM Cy5 fork, room temperature; recombinant protein; residues 1-897; protein details: StrepII; label: 5'-Cy5 on strand 1"}, "[9]": {"target": "CtIP WT (human) (UniProt Q99708)", "assay": "optical tweezers with confocal imaging", "conditions": "fork bound in trans to CtIP on trapped DNA, infrequent; C-Trap reaction: 10 mM Tris-Cl pH 7.6, 20 mM NaCl, 1 mM DTT, 0.1 mg/ml BSA; recombinant protein; residues 1-897; protein details: StrepII (cleavable); label: 5'-Cy5 on strand 2"}}, "note": "For part of these data: The comparison behind a weaker result is the experiment's own reference, which may not be listed here. For part of these data: The exact form of at least one protein or probe is not confirmed. For part of these data: At least one verdict rests on a figure or table, not on a statement of the authors.", "data": [{"sequence": "GCTTGCTAGGACGGATCGCTCGAGGTTTTTTTTTTTTTTTTTTTT / TTTTTTTTTTTTTTTTTTTTCCTCGAGCGATCCGTCCTAGCAAGC [HEX fork]", "values": [{"measurement": "binding result", "setting": "[1]", "value": "binds more weakly"}, {"measurement": "binding result", "setting": "[2]", "value": "binds more weakly"}]}, {"sequence": "GCTTGCTAGGACGGATCGCTCGAGGTTTTTTTTTTTTTTTTTTTT / TTTTTTTTTTTTTTTTTTTTCCTCGAGCGATCCGTCCTAGCAAGC [Cy5 fork]", "values": [{"measurement": "binding result", "setting": "[3]", "value": "binds more weakly"}, {"measurement": "binding result", "setting": "[4]", "value": "binds more weakly"}, {"measurement": "binding result", "setting": "[5]", "value": "binds more weakly"}, {"measurement": "binding result", "setting": "[6]", "value": "binds more weakly"}, {"measurement": "binding result", "setting": "[7]", "value": "binds more weakly"}, {"measurement": "binding result", "setting": "[8]", "value": "binds more weakly"}]}, {"sequence": "TCAGCTCATGTCATCCTCAGCACACTTGACCGGCTAGGCAGGATATCATGCATGCGGCCGCCATGGGAGGGTTAAGTAAGTAGATCAGAGA / TCTCTGATCTACTTACTTAACCCTCCCATGGCGGCCGCATGCATGATATCCTGCCTAGCCCTCAGCTCAGCTAGCCTCAGCCTACAATCACC [Cy5-Fork (C-Trap)]", "values": [{"measurement": "binding result", "setting": "[9]", "value": "binds"}]}]}
